{"source": "patent US20130005747A1", "about": "“METHOD FOR SELECTING A CANCER THERAPY” (Cyclacel Limited, priority 2010, published 2013)", "test_system": "NSCLC cell lines", "assay": "Pharmacogenomic analysis, NSCLC cell lines, summary", "assay_type": "cell-based, human", "conditions": "of 52 NSCLC cell lines; number (%)", "data": [{"smiles": "CC[C@H](CO)Nc1nc(NCc2ccccc2)c2ncn(C(C)C)c2n1", "note": "[seliciclib, roscovitine]", "values": [{"measurement": "NSCLC cell lines with marked sensitivity (fractional growth ≦50% versus controls)", "result": "29 (56%)"}, {"measurement": "NSCLC cell lines with modest sensitivity (fractional growth between 75% and 50%)", "result": "21 (40%)"}]}]}
